Source: PubChem BioAssay AID2810 (NMMLSC, 2010)
This is one part of the list. These are further read-outs of the screen, such as a control signal, another cell line or another target. No call is given for them.

Test: modulators of CD8 T cell-vesicle binding, confirmation, cherry-picked primary hits, two concentrations (AID 2810);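 note: lower values mean blocking of vesicle binding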;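 for percent response (vesicle binding): ratio of mean FL2 vesicle stain of CD8+ cells to that row's control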
Conditions: 2C CD8+ T cell-vesicle binding, flow cytometry; for double positive events: CD8+/vesicle+ events
[1] = at 15.4 µM, stronger effect = lower value

| Structure (SMILES) | double positive events (at 7.7 µM) [%] | double positive events [1] [%] | percent response (vesicle binding) (at 7.7 µM) [%] |
| --- | --- | --- | --- |
| CCC(C)NC(=O)c1cn(CC)c2ccc(S(=O)(=O)N(C)C)cc2c1=O (stereo not given) | 32.9 | 8.6 | 143 |
| Cc1ccc(S(=O)(=O)NC(CC(=O)NCC2CCCO2)c2ccccc2)cc1 (stereo not given) | 22.3 | 27.9 | 331 |
| O=C(Cc1ccccc1)Nc1cc2c(cc1Cl)OCCCO2 | 11.1 | 14.3 | 210 |
| Cc1ccc(OCCOC(=O)c2cc(S(=O)(=O)N3CCCCC3)ccc2N2CCOCC2)cc1 | 12.7 | 26.3 | 569 |
| O=S(=O)(c1ccc(F)cc1)N1CCC(O)(c2ccc3c(c2)OCO3)CC1 | 34.6 | 22.2 | 482 |
| CCOc1ccc(-c2cc(CCCC(=O)NCCc3ccccc3)no2)cc1 | 11 | 24.5 | 182 |
| COc1nc(Nc2ccc(C(C)C)cc2)nc(OC)n1 | 12 | 26.9 | 234 |
| COc1ccc(C(=O)C2CCN(C(=S)NCCc3ccc(OC)c(OC)c3)CC2)cc1 | 12.3 | 26.6 | 215 |
| O=C(Nc1ccc2nc(-c3ccco3)c(-c3ccco3)nc2c1)N1CCN(c2ccccn2)CC1 | 9 | 10.2 | 470 |
| COc1ccc(C(=O)Nc2ccccc2C(=O)O)cc1Cl | 9.6 | 13.5 | 158 |
| COc1ccc(Nc2nc(C)cc(C)c2C#N)c(OC)c1 | 6 | 20 | 103 |
| Cc1ccc(NC(=O)CC2OC(=O)c3ccccc32)cc1S(=O)(=O)N1CCOCC1 (stereo not given) | 12 | 25.5 | 425 |
| CCOC(=O)c1ccc(CNC(=O)Cn2nnc(-c3ccccc3F)n2)o1 | 8.9 | 19.8 | 338 |
| CSCCC(NS(=O)(=O)c1cccc(C(F)(F)F)c1)C(=O)N(C)Cc1ccc2c(c1)OCCO2 (stereo not given) | 13 | 30.3 | 548 |
| COc1ccc([C@H](NC(=O)OC(C)(C)C)C(=O)OC(C)(C)C)cc1 | 33.8 | 18.2 | 180 |
| CCC(C)S(=O)(=O)c1snnc1C (stereo not given) | 5.3 | 5.6 | 208 |
| Cc1ccc(NC(=O)c2cc(-c3ccccc3)nn2-c2ccccc2)cc1 | 10.4 | 12.6 | 404 |
| O=C(CO)N/N=C/c1cccc(Cl)c1Cl | 23 | 12 | 300 |
| O=S(=O)(Nc1ncccn1)c1ccc(Nc2ncnc3ccccc23)cc1 | 18 | 31.8 | 245 |
| COC(=O)c1c(-c2ccc(OC)cc2)sc2ccccc12 | 7.4 | 23.3 | 75.9 |
| Cn1c(CNC(=O)CNC(=O)c2ccc(F)cc2)cc(=O)n(C)c1=O | 21.2 | 3.9 | 126 |

| Structure (SMILES) | double positive events (at 7.7 µM) [%] | double positive events [1] [%] | percent response (vesicle binding) (at 7.7 µM) [%] |
| --- | --- | --- | --- |
| CCOc1cc(CNC2CCCC2)cc(Cl)c1OCc1ccc(F)cc1 | 33.6 | 13.5 | 242 |
| CC(=O)N1CCN(C(=O)c2ccc(Cl)c(S(=O)(=O)N3CCc4ccccc43)c2)CC1 | 11.7 | 27.5 | 329 |
| CCCOc1ccc(CSc2n[nH]c(C)n2)cc1 | 14.2 | 22.2 | 371 |
| CC(=O)c1ccc(NC(=O)COC(=O)Cn2cnc3ccccc32)cc1 | 25.1 | 22.3 | 198 |
| Cc1cccc(N/N=C(\C(N)=O)C2=NC(C)(C)Cc3ccccc32)c1 | 23.5 | 21 | 334 |
| O=C(CN1C(=O)NC2(CCCCCC2)C1=O)N1CCN(c2ccccc2)CC1 | 15.7 | 28.4 | 166 |
| COc1ccc(-n2cc(CNCCc3cscn3)c(-c3ccccc3Cl)n2)cc1 | 18.3 | 36.4 | 241 |
| CN(C)S(=O)(=O)c1ccc(N2CCCC2)c(C(=O)NCC(=O)Nc2ccc(F)c(F)c2)c1 | 10.6 | 3.8 | 382 |
| COc1ccc2c(c1)C1NC(=S)NC(C)(O2)C1C(=O)Nc1ccc(Cl)cc1 (stereo not given) | 7.2 | 4.6 | 152 |
| CCOc1ccc2[nH]c(=O)c(CN(Cc3nnnn3Cc3ccccc3)CC3CCCO3)cc2c1 (stereo not given) | 18.6 | 17.6 | 241 |
| COc1cccc(-n2c(CN3CCN(c4ccc(C)cc4)C(C)C3)nc3ccc([N+](=O)[O-])cc3c2=O)c1 (stereo not given) | 5.4 | 10.8 | 71.2 |
| Cc1nc(CNC(=O)C2CCC(=O)N(CCc3ccc(Cl)cc3)C2)sc1C (stereo not given) | 39.2 | 19.2 | 389 |
| Cc1cc(Cl)c(OCCCN2CCCCC2)c(Br)c1 | 12 | 29.3 | 336 |
| Cc1ccc(C(=O)NC(=S)Nc2ccc(NC(=O)c3cccs3)cc2)cc1[N+](=O)[O-] | 29.7 | 40.7 | 767 |
| Cc1ccc2c(=O)n3c(nc2c1)C(Cc1ccccc1)NC(=O)c1cc(Cl)ccc1-3 (stereo not given) | 8.1 | 24.3 | 320 |
| CCN1CCN(c2ccc(S(=O)(=O)N3CCOCC3)cc2NC(=O)/C=C/c2ccc(C)cc2)CC1 | 11.1 | 30.4 | 161 |
| CCN1CCCC1Cn1cnc2c([nH]c3ccc(C)cc32)c1=O (stereo not given) | 17.8 | 11.8 | 279 |
| CCOCc1nnc(NC(=O)c2ccco2)s1 | 25.9 | 29.1 | 263 |
| CN1CCc2c(sc3c2c(NCc2ccco2)nc2nnnn23)C1 | 11.2 | 44.3 | 436 |
| O=C(Cc1coc2cc(O)ccc12)NNC(=O)c1cccs1 | 14.7 | 27.5 | 184 |
| Cc1nc2ccc(Br)cc2c2c1CC(CBr)O2 (stereo not given) | 27.3 | 16 | 271 |

| Structure (SMILES) | double positive events (at 7.7 µM) [%] | double positive events [1] [%] | percent response (vesicle binding) (at 7.7 µM) [%] |
| --- | --- | --- | --- |
| Cc1ccc(NC(=O)c2ccccc2N(C)S(=O)(=O)c2ccccc2)c(C)c1 | 13 | 38.9 | 92.6 |
| O=C(N/N=C/c1sc2ccccc2c1O)c1ccccc1 | 37.5 | 20.4 |  |
| COc1ccc2c(=O)c(C(=O)NCc3ccccc3)c[nH]c2c1 | 12.8 | 15.9 | 145 |
| O=S(=O)(Nc1cccc(-c2cn3c(n2)SCC3)c1)c1ccc(F)cc1F | 21.9 | 31.7 | 225 |
| CS(=O)(=O)N(Cc1ccc(Cl)cc1)c1ccc(C(=O)NCCSc2ccccn2)cc1 | 31 | 23.1 | 421 |
| C[C@@H]1CCC(=O)N(CC[C@H](Sc2ccc(Br)cc2)c2ccccc2)CC1 | 16.3 | 9.5 | 330 |
| O=C(NC1CCCCCC1)C1CCN(S(=O)(=O)c2ccccc2)CC1 | 19 | 23.9 | 151 |
| Cc1c(C)c2ccc(OCC(=O)N3CCC(C(=O)O)CC3)c(C)c2oc1=O | 23.6 | 18.4 | 236 |
| O=C(COc1ccc(Br)cc1)N1CCN(c2ccc([N+](=O)[O-])c(N3CCCCC3)c2)CC1 | 7.4 | 12.6 | 93.1 |
| CN(c1ccccc1)S(=O)(=O)c1cccc(NC(=O)C2CCCO2)c1 (stereo not given) | 8.5 | 12.6 | 343 |
| C/C(=N\NC(=O)CNC(=O)C(c1ccccc1)c1ccccc1)c1ccc(C)cc1 | 11.3 | 18.9 | 408 |
| CCCC(=O)Nc1ccc(Cl)c(NC(=O)c2cccnc2)c1 | 38.7 | 30.5 | 286 |
| CCOC(=O)c1c(NC(=O)CCl)sc(CN(C)C)c1-c1ccccc1 | 20.1 | 11.1 | 211 |
| O=C(NNC(=S)Nc1ccc(Br)cc1Cl)c1ccco1 | 15 | 40.7 | 253 |
| COc1ccc(OCCCC(=O)OCC(=O)Nc2sccc2C(N)=O)cc1 | 16.9 | 36.8 | 145 |
| O=C(c1ccco1)N1CCN(C(=O)C2c3ccccc3Oc3ccccc32)CC1 | 26.2 | 26.8 | 415 |
| COCCn1c(SCC(=O)Nc2ccc(C(C)=O)cc2)nc2c([nH]c3ccccc32)c1=O | 16.1 | 34.4 | 394 |
| CCOc1ccc(CNC(c2ccccc2)c2ccccc2)cc1 | 11.3 | 14.3 | 216 |
| CC(Sc1nc2ccccc2[nH]1)C(=O)NC1CCCCC1C (stereo not given) | 26.2 | 3.9 | 192 |
| COc1ccc(S(=O)(=O)N2CCCCC2)cc1C(=O)N1CCCC1 | 9.1 | 37 | 165 |
| Cc1ncc(CN2CCCC(C(=O)Nc3ccc(-c4cscn4)cc3)C2)cn1 (stereo not given) | 12.4 | 30.3 | 221 |

| Structure (SMILES) | double positive events (at 7.7 µM) [%] | double positive events [1] [%] | percent response (vesicle binding) (at 7.7 µM) [%] |
| --- | --- | --- | --- |
| CC(COc1ccc(C(C)C)cc1)NC(=O)c1ccc(Br)o1 (stereo not given) | 28.7 | 21.1 | 278 |
| CC1CCN(S(=O)(=O)Cc2ccccc2Cl)CC1 | 9.2 | 16.3 | 336 |
| O=C(Nc1ccc(OC(F)(F)F)cc1)C1=NCCN1 | 6.9 | 26.1 | 272 |
| CCN1CC(CN(C)Cc2nc(-c3ccc(OC)c4ccccc34)oc2C)CC1=O (stereo not given) | 12.9 | 19.3 | 181 |
| CC(=O)N/C(=C\c1ccccc1)C(=O)NCc1ccc2c(c1)OCO2 | 5.9 | 19.2 | 252 |
| O=C(CN1C(=O)C(=O)N(Cc2ccccc2)C1=O)c1ccc[nH]1 | 14.5 | 15.8 | 422 |
| O=C1Nc2ccccc2C12OCCS2 (stereo not given) | 26.8 | 19.4 | 817 |
| Cc1ccc(-c2cc(=O)[nH][nH]2)c(C)c1 | 11.3 | 22.1 | 411 |
| COc1ccc(-c2cc(=O)c3cc(O)ccc3o2)cc1 | 19.6 | 12.9 | 266 |
| COc1ccc(S(=O)(=O)N2CCCCCC2)cc1C(=O)NCc1cccs1 | 10.3 | 20.3 | 301 |
| CN(C)C(=O)NC(O)C(Cl)Cl (stereo not given) | 14.8 | 16.3 | 281 |
| Cn1c(NCc2ccc(Cl)cc2)nc2ccccc21 | 13.5 | 16.5 | 164 |
| O=C(NCC1CCCO1)c1ccc(CS(=O)(=O)c2ccc(Br)cc2)o1 (stereo not given) | 31.9 | 9.7 | 163 |
| O=C(CCS(=O)(=O)c1ccccc1)Nc1nc2c(s1)COc1ccccc1-2 | 23.1 | 9.3 | 310 |
| Cc1cc(C)c2c(N)c(C(=O)c3ccc(Cl)cc3)sc2n1 | 25 | 31.2 | 195 |
| COc1ccc(-c2nnn(CC(=O)N(c3cccc(O)c3)C(C)C(=O)NC3CCCC3)n2)cc1OC (stereo not given) | 39.5 | 28.8 | 263 |
| COCc1c(C(=O)Nc2cccc(S(=O)(=O)N3CCCCC3)c2)oc2ccccc12 | 14.2 | 15.7 | 222 |
| Cc1ccc(C2=NS(=O)(=O)N(C)C(C(=O)Nc3cc(C)n(CC(=O)N4CCC(C)CC4)n3)=C2)cc1 | 21.7 | 20.4 | 470 |
| c1cncc(CSc2ccc(-c3ccc4c(c3)OCO4)nn2)c1 | 22.1 | 37.6 | 147 |

22 entries from above, in CSV form.
Structure (SMILES),double positive events (at 7.7 µM) [%],double positive events [1] [%],percent response (vesicle binding) (at 7.7 µM) [%]
COCCn1c(SCC(=O)Nc2ccc(C(C)=O)cc2)nc2c([nH]c3ccccc32)c1=O,16.1,34.4,394
CCOc1ccc(CNC(c2ccccc2)c2ccccc2)cc1,11.3,14.3,216
CC(Sc1nc2ccccc2[nH]1)C(=O)NC1CCCCC1C (stereo not given),26.2,3.9,192
COc1ccc(S(=O)(=O)N2CCCCC2)cc1C(=O)N1CCCC1,9.1,37,165
Cc1ncc(CN2CCCC(C(=O)Nc3ccc(-c4cscn4)cc3)C2)cn1 (stereo not given),12.4,30.3,221
CC(COc1ccc(C(C)C)cc1)NC(=O)c1ccc(Br)o1 (stereo not given),28.7,21.1,278
CC1CCN(S(=O)(=O)Cc2ccccc2Cl)CC1,9.2,16.3,336
O=C(Nc1ccc(OC(F)(F)F)cc1)C1=NCCN1,6.9,26.1,272
CCN1CC(CN(C)Cc2nc(-c3ccc(OC)c4ccccc34)oc2C)CC1=O (stereo not given),12.9,19.3,181
CC(=O)N/C(=C\c1ccccc1)C(=O)NCc1ccc2c(c1)OCO2,5.9,19.2,252
O=C(CN1C(=O)C(=O)N(Cc2ccccc2)C1=O)c1ccc[nH]1,14.5,15.8,422
O=C1Nc2ccccc2C12OCCS2 (stereo not given),26.8,19.4,817
Cc1ccc(-c2cc(=O)[nH][nH]2)c(C)c1,11.3,22.1,411
COc1ccc(-c2cc(=O)c3cc(O)ccc3o2)cc1,19.6,12.9,266
COc1ccc(S(=O)(=O)N2CCCCCC2)cc1C(=O)NCc1cccs1,10.3,20.3,301
CN(C)C(=O)NC(O)C(Cl)Cl (stereo not given),14.8,16.3,281
Cn1c(NCc2ccc(Cl)cc2)nc2ccccc21,13.5,16.5,164
O=C(NCC1CCCO1)c1ccc(CS(=O)(=O)c2ccc(Br)cc2)o1 (stereo not given),31.9,9.7,163
O=C(CCS(=O)(=O)c1ccccc1)Nc1nc2c(s1)COc1ccccc1-2,23.1,9.3,310
Cc1cc(C)c2c(N)c(C(=O)c3ccc(Cl)cc3)sc2n1,25,31.2,195
COc1ccc(-c2nnn(CC(=O)N(c3cccc(O)c3)C(C)C(=O)NC3CCCC3)n2)cc1OC (stereo not given),39.5,28.8,263
COCc1c(C(=O)Nc2cccc(S(=O)(=O)N3CCCCC3)c2)oc2ccccc12,14.2,15.7,222

Two of the compounds above, as labelled records.
CCOc1ccc(CNC(c2ccccc2)c2ccccc2)cc1
  double positive events (at 7.7 µM) [%]: 11.3
  double positive events [1] [%]: 14.3
  percent response (vesicle binding) (at 7.7 µM) [%]: 216
CC(COc1ccc(C(C)C)cc1)NC(=O)c1ccc(Br)o1 (stereo not given)
  double positive events (at 7.7 µM) [%]: 28.7
  double positive events [1] [%]: 21.1
  percent response (vesicle binding) (at 7.7 µM) [%]: 278
